Here are results for one compound from patent US20250268967A1, “NUTRACEUTICAL COMPOUNDS USEFUL IN THE TREATMENT OF CORONAVIRUS DISEASE” (priority 2020, published 2025).

This assay relates to SARS-CoV-2. The assay is described as follows: In vitro antiviral immunostaining assay in Vero E6 cells. The settings on record: Vero E 6 cells.

In turn, `CCC(CC)COC(=O)[C@H](C)N[P@](=O)(OC[C@H]1O[C@@](C#N)(c2ccc3c(N)ncnn23)[C@H](O)[C@@H]1O)Oc1ccccc1` [Remdesivir] registered an EC50 of 1150 nM.

One may read the EC50 as the concentration giving half of the maximal effect. Low values mean greater potency, high ones weaker potency.
